Results are given in words; binding and its absence hold for the method and conditions named. Binding seen in cells or lysates may run through a third protein. Some binding calls cover weakened binding; strength is not graded here. For part of these data: Sequences can lack the tags named with a protein.
Tests used:
[1] = target: T1, Adaptor Protein, Phosphotyrosine Interacting With PH Domain And Leucine Zipper 1 (APPL1), endogenous in PC-3U cells (human) (UniProt Q9UKG1); assay: co-immunoprecipitation, PC-3U lysates (FIG. 3C)
T1 sequence (looked up): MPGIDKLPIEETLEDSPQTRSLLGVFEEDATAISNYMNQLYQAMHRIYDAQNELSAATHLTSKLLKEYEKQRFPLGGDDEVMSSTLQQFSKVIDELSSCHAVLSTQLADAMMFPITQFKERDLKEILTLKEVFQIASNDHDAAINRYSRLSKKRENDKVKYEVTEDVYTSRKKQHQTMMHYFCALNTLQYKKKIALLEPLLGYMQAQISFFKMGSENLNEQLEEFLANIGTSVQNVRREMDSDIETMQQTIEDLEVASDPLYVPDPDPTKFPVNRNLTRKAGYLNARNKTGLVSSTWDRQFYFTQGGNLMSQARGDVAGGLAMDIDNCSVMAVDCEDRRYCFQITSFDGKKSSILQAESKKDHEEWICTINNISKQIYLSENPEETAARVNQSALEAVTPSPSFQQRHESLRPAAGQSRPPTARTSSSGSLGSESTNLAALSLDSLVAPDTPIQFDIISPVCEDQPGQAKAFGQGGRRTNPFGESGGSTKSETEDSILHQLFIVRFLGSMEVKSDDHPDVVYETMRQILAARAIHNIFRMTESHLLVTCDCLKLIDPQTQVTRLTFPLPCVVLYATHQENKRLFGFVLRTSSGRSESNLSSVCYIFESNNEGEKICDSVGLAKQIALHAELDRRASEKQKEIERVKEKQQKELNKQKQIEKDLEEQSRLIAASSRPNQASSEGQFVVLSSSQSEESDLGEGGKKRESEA

By UniProt entry, the sequences of proteins in these tests, tags left out. Where a name states a change or a piece, a line headed by the entry shows the natural chain unless it says otherwise.
UniProt Q96GD4: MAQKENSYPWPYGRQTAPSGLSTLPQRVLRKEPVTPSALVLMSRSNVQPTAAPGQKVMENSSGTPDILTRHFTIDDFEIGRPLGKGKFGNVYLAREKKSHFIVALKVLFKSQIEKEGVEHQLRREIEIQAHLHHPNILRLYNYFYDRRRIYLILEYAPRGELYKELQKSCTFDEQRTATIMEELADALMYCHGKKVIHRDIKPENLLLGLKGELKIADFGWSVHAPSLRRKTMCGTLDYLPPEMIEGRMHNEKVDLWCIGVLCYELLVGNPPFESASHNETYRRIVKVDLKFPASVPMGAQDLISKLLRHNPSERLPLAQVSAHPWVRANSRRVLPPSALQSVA

[2] = target: T1, Adaptor Protein, Phosphotyrosine Interacting With PH Domain And Leucine Zipper 1 (APPL1), endogenous in PC-3U cells (human); assay: co-immunoprecipitation: AURKB antibody IP, APPL1 immunoblot, synchronized PC-3U lysates (FIG. 3C)
[3] = target: T2, GFP-APPL1 BAR domain (human) (UniProt Q9UKG1); assay: co-immunoprecipitation: HA IP, GFP immunoblot (FIG. 1O)
T2 sequence (looked up): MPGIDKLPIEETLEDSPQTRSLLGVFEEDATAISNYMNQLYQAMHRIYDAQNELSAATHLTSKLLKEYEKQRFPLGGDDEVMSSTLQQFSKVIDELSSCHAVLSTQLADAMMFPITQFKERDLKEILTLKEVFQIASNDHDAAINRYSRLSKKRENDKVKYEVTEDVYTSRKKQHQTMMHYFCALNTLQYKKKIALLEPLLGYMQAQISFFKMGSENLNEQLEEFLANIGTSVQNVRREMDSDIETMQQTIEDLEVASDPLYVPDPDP

[4] = target: T3, GFP-APPL1 PTB domain (human) (UniProt Q9UKG1); assay: as above
T3 sequence (looked up): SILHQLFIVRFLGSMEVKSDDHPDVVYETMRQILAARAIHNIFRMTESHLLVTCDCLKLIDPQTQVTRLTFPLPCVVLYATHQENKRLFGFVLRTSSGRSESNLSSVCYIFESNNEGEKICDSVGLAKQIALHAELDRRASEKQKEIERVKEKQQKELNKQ

[5] = target: T4, GFP-APPL1 PH domain (human) (UniProt Q9UKG1); assay: as above
T4 sequence (looked up): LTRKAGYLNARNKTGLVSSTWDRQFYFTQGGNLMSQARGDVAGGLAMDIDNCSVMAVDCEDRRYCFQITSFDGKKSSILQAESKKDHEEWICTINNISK

[6] = target: T2, GFP-APPL1 BAR domain (human); assay: co-immunoprecipitation: HA IP, GFP immunoblot, synchronized PC-3U cells (FIG. 1O)
[7] = target: T3, GFP-APPL1 PTB domain (human); assay: as above
[8] = target: T4, GFP-APPL1 PH domain (human); assay: as above
[9] = target: Aurora kinase B (AURKB), endogenous, in PC-3U cell lysates / human tissue sections (human) (UniProt Q96GD4); assay: confocal co-localisation and co-immunoprecipitation in PC-3U cells

Measured: binding

Aurora kinase B (AURKB), endogenous, in PC-3U cell lysates / human tissue sections (from UniProt Q96GD4 1-344) (enzyme)
binds: [1] | [2]

HA-AURKB (from UniProt Q96GD4 1-344) (enzyme)
not listed: [1] | [2] | [9]
binds: all other assays above

B1: Adaptor Protein, Phosphotyrosine Interacting With PH Domain And Leucine Zipper 1 (APPL1), endogenous in PC-3U cells (protein, human, UniProt Q9UKG1 1-709, looked up)
chain: MPGIDKLPIEETLEDSPQTRSLLGVFEEDATAISNYMNQLYQAMHRIYDAQNELSAATHLTSKLLKEYEKQRFPLGGDDEVMSSTLQQFSKVIDELSSCHAVLSTQLADAMMFPITQFKERDLKEILTLKEVFQIASNDHDAAINRYSRLSKKRENDKVKYEVTEDVYTSRKKQHQTMMHYFCALNTLQYKKKIALLEPLLGYMQAQISFFKMGSENLNEQLEEFLANIGTSVQNVRREMDSDIETMQQTIEDLEVASDPLYVPDPDPTKFPVNRNLTRKAGYLNARNKTGLVSSTWDRQFYFTQGGNLMSQARGDVAGGLAMDIDNCSVMAVDCEDRRYCFQITSFDGKKSSILQAESKKDHEEWICTINNISKQIYLSENPEETAARVNQSALEAVTPSPSFQQRHESLRPAAGQSRPPTARTSSSGSLGSESTNLAALSLDSLVAPDTPIQFDIISPVCEDQPGQAKAFGQGGRRTNPFGESGGSTKSETEDSILHQLFIVRFLGSMEVKSDDHPDVVYETMRQILAARAIHNIFRMTESHLLVTCDCLKLIDPQTQVTRLTFPLPCVVLYATHQENKRLFGFVLRTSSGRSESNLSSVCYIFESNNEGEKICDSVGLAKQIALHAELDRRASEKQKEIERVKEKQQKELNKQKQIEKDLEEQSRLIAASSRPNQASSEGQFVVLSSSQSEESDLGEGGKKRESEA
binds: [9]

From patent US20240264161A1, “BIOMARKERS AND USES THEREOF” (MetaCurUm Biotech AB, priority 2021, published 2024)
